Laboratory results: patent US20040101896A1
Results are given in words; binding and its absence hold for the method and conditions named. Binding seen in cells or lysates may run through a third protein. Some results given as binding are weak or reduced against the parent protein; the word gives no strength. Tags and fused reporters may be left off the sequences shown.

Tests used:
[1] = target: T1, FLAG-tagged K40M NIMA (full length, kinase-negative) expressed in HeLa tTA-1 cells (Aspergillus nidulans) (UniProt P11837); experiment: co-immunoprecipitation, figure description in the example
T1 sequence (looked up): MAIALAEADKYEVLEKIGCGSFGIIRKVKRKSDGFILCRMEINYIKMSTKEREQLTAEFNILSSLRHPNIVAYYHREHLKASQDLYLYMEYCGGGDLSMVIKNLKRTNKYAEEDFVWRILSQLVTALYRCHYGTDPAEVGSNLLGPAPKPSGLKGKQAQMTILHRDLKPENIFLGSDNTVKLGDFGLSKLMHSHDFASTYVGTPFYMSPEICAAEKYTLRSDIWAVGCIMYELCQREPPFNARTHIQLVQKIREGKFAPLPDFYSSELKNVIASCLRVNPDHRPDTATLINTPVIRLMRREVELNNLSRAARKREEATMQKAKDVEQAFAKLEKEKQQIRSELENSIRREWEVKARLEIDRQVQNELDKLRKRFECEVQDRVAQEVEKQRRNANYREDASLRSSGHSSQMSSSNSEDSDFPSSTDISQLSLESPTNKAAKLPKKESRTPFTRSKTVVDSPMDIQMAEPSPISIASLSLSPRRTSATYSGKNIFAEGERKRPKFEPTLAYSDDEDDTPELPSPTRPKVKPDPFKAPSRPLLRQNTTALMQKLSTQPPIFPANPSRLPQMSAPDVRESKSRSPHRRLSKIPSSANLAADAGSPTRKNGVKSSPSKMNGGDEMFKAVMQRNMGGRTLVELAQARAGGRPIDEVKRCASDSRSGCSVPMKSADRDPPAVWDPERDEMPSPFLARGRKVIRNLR

[2] = target: T1, FLAG-tagged K40M NIMA (full length, kinase-negative) expressed in HeLa tTA-1 cells (Aspergillus nidulans); experiment: co-immunoprecipitation from HeLa tTA-1 cells (12CA5 and M2 mAbs), immunoblot
[3] = target: T1, FLAG-tagged K40M NIMA (full length, kinase-negative) expressed in HeLa tTA-1 cells (Aspergillus nidulans); experiment: co-immunoprecipitation

Measured: binding

HA-tagged Pin1 expressed in HeLa tTA-1 cells (from UniProt Q13526 1-163) (enzyme)
binds: all assays above
